# From the supplement of paper PMC12823440, “Inhibitors supercharge kinase turnover through native proteolytic circuits” (Nature, 2025)
# The chains behind the UniProt entries cited, without tags or fusion partners.
# UniProt P21860, whole entry: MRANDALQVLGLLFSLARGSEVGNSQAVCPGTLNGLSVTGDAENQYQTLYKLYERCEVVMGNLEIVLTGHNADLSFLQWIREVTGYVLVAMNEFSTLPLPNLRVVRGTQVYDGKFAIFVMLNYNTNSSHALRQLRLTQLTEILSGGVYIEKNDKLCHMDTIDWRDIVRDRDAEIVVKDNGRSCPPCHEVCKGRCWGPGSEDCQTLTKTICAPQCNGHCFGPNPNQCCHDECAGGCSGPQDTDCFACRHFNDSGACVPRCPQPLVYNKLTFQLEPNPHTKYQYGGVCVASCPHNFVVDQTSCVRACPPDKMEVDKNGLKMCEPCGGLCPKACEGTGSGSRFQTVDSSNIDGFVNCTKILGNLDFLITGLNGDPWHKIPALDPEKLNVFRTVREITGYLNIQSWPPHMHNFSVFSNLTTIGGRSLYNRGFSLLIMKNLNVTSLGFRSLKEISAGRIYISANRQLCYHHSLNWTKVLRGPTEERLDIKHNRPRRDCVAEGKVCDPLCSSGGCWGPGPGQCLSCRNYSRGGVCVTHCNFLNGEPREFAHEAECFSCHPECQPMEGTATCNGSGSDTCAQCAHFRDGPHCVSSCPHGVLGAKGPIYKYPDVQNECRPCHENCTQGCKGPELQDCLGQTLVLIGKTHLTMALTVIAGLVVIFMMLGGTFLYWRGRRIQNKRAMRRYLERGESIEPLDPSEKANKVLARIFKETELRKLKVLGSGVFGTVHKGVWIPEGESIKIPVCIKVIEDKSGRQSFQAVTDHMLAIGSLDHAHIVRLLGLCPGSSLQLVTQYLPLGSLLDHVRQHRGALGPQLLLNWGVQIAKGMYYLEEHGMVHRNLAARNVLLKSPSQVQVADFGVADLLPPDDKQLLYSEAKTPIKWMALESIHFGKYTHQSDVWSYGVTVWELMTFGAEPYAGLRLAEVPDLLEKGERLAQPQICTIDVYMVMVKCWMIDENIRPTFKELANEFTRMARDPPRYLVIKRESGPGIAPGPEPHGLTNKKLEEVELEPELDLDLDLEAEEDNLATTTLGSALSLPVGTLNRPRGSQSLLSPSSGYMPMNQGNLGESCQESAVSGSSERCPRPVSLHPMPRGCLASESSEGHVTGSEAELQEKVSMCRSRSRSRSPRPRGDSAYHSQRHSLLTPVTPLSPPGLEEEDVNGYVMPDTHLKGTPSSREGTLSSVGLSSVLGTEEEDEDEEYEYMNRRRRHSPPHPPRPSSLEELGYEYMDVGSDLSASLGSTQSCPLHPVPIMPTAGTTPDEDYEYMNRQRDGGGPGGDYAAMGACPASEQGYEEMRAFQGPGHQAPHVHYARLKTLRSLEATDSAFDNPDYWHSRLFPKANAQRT
# Structures can show the parent of a compound that is named as a salt. Some of the results follow. The calls rarely recur for the same compound in another form.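 In K562 cells expressing nanoluciferase-fused kinases, luminescence was recorded at 4 h intervals between 2 and 18 h, normalized as percent of control with DMSO at 100% and a positive control at 0%. A significant (2 sigma) signal drop marks a time point as decreased. The authors' rule for a hit is not shown and takes in more than the number of time points.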
# Target: ERBB3 (UniProt P21860)
# Assay: kinase-Nluc reporter destabilization hit call (1 = scored as downregulated) (binary); higher = compound decreases kinase abundance
# Conditions: K562; 2-18 h
row,SMILES,kinase-Nluc reporter destabilization hit call
1,O=c1[nH]c2ccccc2n1C1CCN(Cc2ccc(-c3[nH]c4cc5ncnc5cc4nc3-c3ccccc3)cc2)CC1 [AKT inhibitor VIII] (2.5 µM),inactive: 0
2,C[C@H]1CC[C@]2(NC1)O[C@H]1C[C@H]3[C@@H]4CC[C@H]5C[C@@H](O[C@@H]6O[C@H](CO)[C@H](O[C@@H]7O[C@H](CO)[C@@H](O)[C@H](O[C@@H]8OC[C@@H](O)[C@H](O)[C@H]8O)[C@H]7O[C@@H]7O[C@H](CO)[C@@H](O)[C@H](O)[C@H]7O)[C@H](O)[C@H]6O)CC[C@]5(C)[C@H]4CC[C@]3(C)[C@H]1[C@@H]2C [Tomatine] (2.5 µM),inactive: 0
3,C=C[C@H]1CN2CC[C@]3(C(=O)Nc4ccccc43)[C@@H]2C[C@@H]1/C(=C\OC)C(=O)OC [Corynoxeine] (2 µM),inactive: 0
4,C=CC(=O)Nc1ccc2[nH]c(=O)n(C3CCN(Cc4ccc(-c5nc6cc[nH]c(=O)c6cc5-c5ccccc5)cc4)CC3)c2c1 [Borussertib] (10 µM),inactive: 0
5,CCOC(=O)c1c(/C(C#N)=C\N)c2ccc(Cl)c(Cl)c2n1C (10 µM),inactive: 0
6,CC(=O)OC(C)(C)/C=C/C(=O)[C@](C)(O)[C@H]1[C@H](O)C[C@@]2(C)[C@@H]3CC=C4[C@@H](C=C(O)C(=O)C4(C)C)[C@]3(C)C(=O)C[C@]12C [Cucurbitacin E] (2.5 µM),inactive: 0
7,Cc1[nH]ncc1-c1cc2nc([C@H]3CC4CCN3CC4)[nH]c(=O)c2s1 [(R)-Simurosertib] (10 µM),inactive: 0
8,C[C@H]1CC[C@]2(NC1)O[C@H]1C[C@H]3[C@@H]4CC[C@H]5C[C@@H](O)CC[C@]5(C)[C@H]4CC[C@]3(C)[C@H]1[C@@H]2C [Tomatidine] (2 µM),inactive: 0
9,O=Cc1cn(Cc2ccc(Cl)cc2)c2ccccc12 [Oncrasin-1] (10 µM),inactive: 0
10,O=[N+]([O-])/C=C/c1ccc2c(c1)OCO2 (2.5 µM),inactive: 0
11,CCN1CCN(C(=O)Cc2ccc(Nc3ncc(F)c(Nc4ccc(C(=O)Nc5ccccc5Cl)cc4)n3)cc2)CC1 (2.5 µM),inactive: 0
12,COc1ccc2c(c[n+](C)c3c4cc5c(cc4ccc23)OCO5)c1OC [Chelerythrine (chloride)] (10 µM),inactive: 0
13,COC[C@H]1OC(=O)c2coc3c2[C@@]1(C)C1=C(C3=O)[C@@H]2CCC(=O)[C@@]2(C)C[C@H]1OC(C)=O [Wortmannin] (2.5 µM),inactive: 0
14,C[C@H]1CC[C@]2(NC1)O[C@H]1C[C@H]3[C@@H]4CC[C@H]5C[C@@H](O)CC[C@]5(C)[C@H]4CC[C@]3(C)[C@H]1[C@@H]2C [Tomatidine (hydrochloride)] (10 µM),inactive: 0
15,COc1ccc(/C=C/c2cc(OC)c(OC)c(OC)c2)cc1 (2.5 µM),inactive: 0
16,O=c1cc(O)c2ccccc2o1 [4-Hydroxycoumarin] (10 µM),inactive: 0
17,C=CC(=O)N[C@H]1C=C(C)c2c(-c3cnc4ccccc4c3)c3c(N)ncnc3n2C1 (10 µM),inactive: 0
18,N#CC(C#N)=Cc1ccc([N+](=O)[O-])c(O)c1 (10 µM),inactive: 0
19,O=C(O)c1sc2cc(Cl)ccc2c1Cl (10 µM),inactive: 0
20,Cc1n[nH]cc1-c1cc2nc([C@@H]3CC4CCN3CC4)[nH]c(=O)c2s1 [Simurosertib] (2.5 µM),inactive: 0
21,Cn1cc(C2=C(c3cn(C4CCN(Cc5ccccn5)CC4)c4ccccc34)C(=O)NC2=O)c2ccccc21 [Enzastaurin] (10 µM),inactive: 0
22,CN(C)C(=O)c1ccc(Cn2c(C(=O)O)cc3c(Br)cc(Sc4ccc(Cl)c(Cl)c4)cc32)cc1 [Rheb inhibitor NR1] (10 µM),inactive: 0
23,C/C(O)=C(\C#N)C(=O)Nc1cc(Br)ccc1Br (10 µM),inactive: 0
24,O=C1c2ccccc2C(=O)c2c1cccc2-c1cnn(C2CCNCC2)c1 [PDK4-IN-1 (hydrochloride)] (10 µM),inactive: 0
25,COc1ccc(N(C(=O)Oc2c(C)cccc2C)c2ccnc(Nc3ccc(N4CCN(C)CC4)cc3)n2)c(OC)c1 (2.5 µM),inactive: 0
26,C[C@@H]1CC[C@H]2[C@@H](C)C(=O)O[C@@H]3O[C@@]4(C)CC[C@@H]1[C@]32OO4 [Artemisinin] (10 µM),inactive: 0
27,CC(C)(C)c1cc(C=C(C#N)C#N)cc(Br)c1O (2.5 µM),inactive: 0
28,CC1=C[C@]23C(=O)[C@@H](C=C(CO)[C@@H](O)[C@]2(O)[C@H]1O)[C@H]1[C@@H](C[C@H]3C)C1(C)C [Ingenol] (10 µM),inactive: 0

# Another view of some results above:
row | SMILES | kinase-Nluc reporter destabilization hit call
2 | C[C@H]1CC[C@]2(NC1)O[C@H]1C[C@H]3[C@@H]4CC[C@H]5C[C@@H](O[C@@H]6O[C@H](CO)[C@H](O[C@@H]7O[C@H](CO)[C@@H](O)[C@H](O[C@@H]8OC[C@@H](O)[C@H](O)[C@H]8O)[C@H]7O[C@@H]7O[C@H](CO)[C@@H](O)[C@H](O)[C@H]7O)[C@H](O)[C@H]6O)CC[C@]5(C)[C@H]4CC[C@]3(C)[C@H]1[C@@H]2C [Tomatine] (2.5 µM) | inactive: 0
19 | O=C(O)c1sc2cc(Cl)ccc2c1Cl (10 µM) | inactive: 0
